# Screen size: about 320,000 compounds; about 22,000 (6.9%) were called active. The shares of active, inactive and inconclusive entries below differ from those in the screen. The call rests on the fitted dose curve; in most records, active means well fitted inhibition curve with a large enough effect; inconclusive means small, poorly fitted or top-dose-only effect, or another doubt; inactive means no such curve, though single readings can be large or run the other way. A potency beside an inconclusive call is a rough fit, not a confirmed value.
# Assay: Primary qHTS for delayed death inhibitors of the malarial parasite plastid, 96 hour incubation
# Conditions: P. falciparum luciferase reporter growth; series mostly up to 28.7 µM; activity change, negative = inhibition: at the top concentration
# Summary of the method: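 Two-generation exposure (96 h) targets delayed-death phenotype. Reporter parasites carrying integrated firefly luciferase, in red cells at 2% hematocrit and 0.05% parasitemia final, kept at 37 C, 5% CO2; luminescence loss indicates inhibition.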
# On the % scale 0 is the no-effect control and ±100 the full control effect; potency means the concentration at half of the fitted maximal effect.
Structure (SMILES),Potency,"activity change, negative = inhibition"
CCC(C)[C@H](NC(=O)N1CC(=O)Nc2ccccc21)C(=O)N[C@H](Cc1c[nH]c2ccccc12)C(=O)O (some centres not stated),"inconclusive: 13.1 µM [inhibitor, partial curve, poor fit]",
O=C(C1CC1)N1CCc2cc(Br)cc(S(=O)(=O)NCCN3CCOCC3)c21,"inconclusive: 1.65 µM [inhibitor, full curve]",
CCOc1ccc(-c2noc(CCC(=O)O)n2)cc1,active: 11.7 µM,
CNCCCOc1cc(C)cc(C)c1C,"inconclusive: 14.7 µM [inhibitor, single point]",
COc1ccc(C2CC(=O)N(CC(=O)NCC3CCCO3)c3ccccc3S2)cc1 (configuration not stated),,inactive: 25.2%
COCC(=O)N1CCC(Oc2ccc(C(=O)NCCc3ncccc3C)cc2)CC1,"inconclusive: 18.5 µM [inhibitor, single point]",
O=C(CO/N=C/c1ccc(OC(F)F)cc1)NCc1ccc(F)cc1,"inconclusive: 8.28 µM [inhibitor, partial curve, poor fit]",
C=CCn1c(O)c(/C=C2/C=CC=N2)c(=O)[nH]c1=O,,inactive: 163%
Cc1cc(NC(=O)CSc2nc3ccsc3c(=O)n2Cc2ccccn2)n[nH]1,"inconclusive: 0.104 µM [inhibitor, full curve, poor fit]",
N#CC1(NC(=O)COC(=O)CSc2ccc(F)cc2)CCCCC1,,inactive: 17.6%
CC(C)[C@H](NC(=O)c1ccccc1)C(=O)OCC(=O)NCc1ccc(F)cc1,,inactive: 24.2%
Cc1ccccc1CSc1ccc2nnc(-c3ccccn3)n2n1,"inconclusive: 4.15 µM [inhibitor, partial curve, poor fit]",
CCCCCn1c(CNC(=O)CC)nc2ccccc21,,inactive: 2.7%
COc1ccc(CCNC(=O)CCCn2nc(C)n3ccnc3c2=O)cc1OC,"inconclusive: 0.0026 µM [inhibitor, full curve, poor fit]",
CCOC(=O)c1nn(-c2ccc3c(c2)OCCO3)cc1O,,inactive: 345%
Cn1ncc(Cl)c1C(=O)Nc1nc2ccc(Cl)cc2s1,,inactive: 8.06%
Cn1c(SCC(=O)N2CCOCC2)nnc1-c1ccc(Cl)cc1Cl,"inconclusive: 18.5 µM [inhibitor, single point]",
COc1cc(NC(=S)N2CCN(S(=O)(=O)c3ccccc3)CC2)cc(OC)c1,,inactive: 4.43%
Cc1ccc(/C=N/Nc2ccc3c(C(F)(F)F)cc(C(F)(F)F)nc3n2)cc1,"inconclusive: 2.62 µM [inhibitor, single point]",
CC(=O)NC(NC(=S)Nc1ccc(N=Nc2ccccc2C)cc1C)C(Cl)(Cl)Cl (configuration not stated),,inactive: 89.2%
O=C(NCCCN1CCOCC1)c1ccc(CNS(=O)(=O)c2ccc(F)cc2)cc1,"inconclusive: 0.329 µM [inhibitor, full curve, poor fit]",
Cc1ccc(S(=O)(=O)NCCC(=O)Nc2ccc(Cl)c(Cl)c2)cc1,,inactive: 49.5%
COc1ccc(/C=C/C(O)=C2/C(=O)NC3(C)CC2c2ccccc2O3)c(OC)c1OC (configuration not stated),,inactive: -15.5%
NC1(C#Cc2ccc3oc(=O)c(-n4cc(-c5ccsc5)nn4)cc3c2)CCCCC1,,inactive: -1.57%

# Reprinted from above, four compounds:
Structure (SMILES),Potency,"activity change, negative = inhibition"
CNCCCOc1cc(C)cc(C)c1C,"inconclusive: 14.7 µM [inhibitor, single point]",
COc1ccc(C2CC(=O)N(CC(=O)NCC3CCCO3)c3ccccc3S2)cc1 (configuration not stated),,inactive: 25.2%
COCC(=O)N1CCC(Oc2ccc(C(=O)NCCc3ncccc3C)cc2)CC1,"inconclusive: 18.5 µM [inhibitor, single point]",
O=C(CO/N=C/c1ccc(OC(F)F)cc1)NCc1ccc(F)cc1,"inconclusive: 8.28 µM [inhibitor, partial curve, poor fit]",

# (next part)

Structure (SMILES),Potency,"activity change, negative = inhibition"
CCCCCCC1CC(/C(C)=N\NC(N)=O)OC1=O (configuration not stated),,inactive: -4.71%
Cc1nc([N+](=O)[O-])c(C(=O)OCc2ccccc2Br)n1C,,inactive: 2.42%
CCOC(=O)C1CCN(C(=O)Cc2c(C(=O)O)n(CC)c3ccccc23)CC1,"inconclusive: 11.7 µM [inhibitor, single point]",
Cc1ccc(S(=O)(=O)N(CC(=O)N2CCOCC2)c2ccc(C(C)C)cc2)cc1,active: 10.4 µM,
COc1ccc(OC)c(NC(=O)CCN2CCN(C/C=C/c3ccccc3)CC2)c1,"inconclusive: 13.1 µM [inhibitor, partial curve]",
CCn1c(SCC(=O)N2CCN(C(=O)c3ccco3)CC2)nnc1C(C)C,"inconclusive: 18.5 µM [inhibitor, single point]",
COc1cc(OC)cc(C(=O)N[C@H](C(=O)OCC(=O)N2CCc3ccccc32)C(C)C)c1,,inactive: 2.84%
Brc1c(CSc2nncc3ccccc23)nc2ccccn12,"inconclusive: 2.94 µM [inhibitor, single point]",
COc1ccc(CCN2C(=O)CS/C2=N\NC(=O)c2ccc(C(C)(C)C)cc2)cc1OC,"inconclusive: 11.7 µM [inhibitor, single point]",
CCc1ccccc1NC(=O)Nc1cccn(Cc2ccc(F)cc2)c1=O,"inconclusive: 10.4 µM [inhibitor, partial curve]",
CCOc1ccc(/C=N/NC(=O)c2nnn(-c3nonc3N)c2CN2CCC(C)CC2)cc1,"inconclusive: 11.7 µM [inhibitor, single point]",
O=C(CN1C(=O)COc2ccccc21)NCCCN1CCCCC1,active: 1.04 µM,
Cc1cc(NC(c2ccc(Cl)cc2)c2ccc3cccnc3c2O)no1 (configuration not stated),active: 0.329 µM,
Cc1ccc(-n2c(-c3ccccc3)c[n+]3c2CCC3)cc1,active: 0.738 µM,
COc1ccc(/C=C/CN2CCC(n3nccc3NC(=O)C3CC3)CC2)cc1,"inconclusive: 18.5 µM [inhibitor, single point]",
CCc1ccc(CCC(=O)Nc2ccc(C)c(C)c2)o1,,inactive: 4.58%
Cc1ccc(-c2nnc(SCC(=O)N/N=C/c3ccccc3C(=O)O)n2C2CCCCC2)cc1,"inconclusive: 18.5 µM [inhibitor, single point]",
CCC(C)OC(=O)C1=C(C)O[C@]23OC(N)=C(C#N)[C@]12C(=O)c1ccccc13 (some centres not stated),,inactive: -28.4%
CCN1CCN(C(=O)c2cc(COc3ccc4ncccc4c3)on2)CC1,,inactive: 3.15%
Cc1nn(C(=O)CCC(=O)NCc2ccc(OC(C)C)cc2)c2ccccc12,"inconclusive: 9.28 µM [inhibitor, single point]",
CCCSc1nnc(NC(=O)c2ccco2)s1,,inactive: 35.9%
Cc1ccc(C)c(N2CCN(S(=O)(=O)c3ccc(-c4cc(C)no4)s3)CC2)c1,"inconclusive: 18.5 µM [inhibitor, partial curve, poor fit]",
C=C[C@@H]1c2cc(C)ccc2N(S(=O)(=O)c2ccc(C)cc2)[C@H](c2ccc(OC(C)=O)cc2)C1(C#N)C#N,"inconclusive: 14.7 µM [inhibitor, single point]",

# Source: PubChem BioAssay AID504834 (National Center for Advancing Translational Sciences (NCATS), 2011)
